The supplement of paper PMC7666118
The list shows a part of the results.

The chains behind the UniProt entries cited, without tags or fusion partners. Where a name states a change or a piece, a line headed by the entry shows the natural chain unless it says otherwise.
UniProt O14526: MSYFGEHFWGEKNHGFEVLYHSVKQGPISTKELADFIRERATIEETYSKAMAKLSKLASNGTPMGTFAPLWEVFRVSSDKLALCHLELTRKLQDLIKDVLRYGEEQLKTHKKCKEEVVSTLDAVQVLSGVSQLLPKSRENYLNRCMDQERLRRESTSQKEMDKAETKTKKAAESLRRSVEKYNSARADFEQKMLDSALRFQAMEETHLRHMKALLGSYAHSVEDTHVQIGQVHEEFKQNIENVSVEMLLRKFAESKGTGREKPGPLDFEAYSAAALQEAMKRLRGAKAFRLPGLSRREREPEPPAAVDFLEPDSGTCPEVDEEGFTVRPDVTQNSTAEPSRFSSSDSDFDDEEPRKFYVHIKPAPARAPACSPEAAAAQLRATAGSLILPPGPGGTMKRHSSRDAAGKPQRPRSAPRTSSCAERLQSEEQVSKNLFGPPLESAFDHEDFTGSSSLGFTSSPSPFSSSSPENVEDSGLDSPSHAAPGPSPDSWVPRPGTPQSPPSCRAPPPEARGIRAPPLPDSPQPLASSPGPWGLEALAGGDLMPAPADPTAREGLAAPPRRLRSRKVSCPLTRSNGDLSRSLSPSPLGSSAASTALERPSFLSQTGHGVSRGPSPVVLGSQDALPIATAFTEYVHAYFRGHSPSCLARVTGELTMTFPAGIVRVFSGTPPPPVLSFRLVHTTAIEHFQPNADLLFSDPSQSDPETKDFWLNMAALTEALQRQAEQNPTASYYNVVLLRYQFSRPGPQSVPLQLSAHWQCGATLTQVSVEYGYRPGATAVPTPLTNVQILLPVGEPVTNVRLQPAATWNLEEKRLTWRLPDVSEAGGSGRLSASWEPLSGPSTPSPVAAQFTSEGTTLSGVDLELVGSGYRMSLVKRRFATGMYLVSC
UniProt Q01543: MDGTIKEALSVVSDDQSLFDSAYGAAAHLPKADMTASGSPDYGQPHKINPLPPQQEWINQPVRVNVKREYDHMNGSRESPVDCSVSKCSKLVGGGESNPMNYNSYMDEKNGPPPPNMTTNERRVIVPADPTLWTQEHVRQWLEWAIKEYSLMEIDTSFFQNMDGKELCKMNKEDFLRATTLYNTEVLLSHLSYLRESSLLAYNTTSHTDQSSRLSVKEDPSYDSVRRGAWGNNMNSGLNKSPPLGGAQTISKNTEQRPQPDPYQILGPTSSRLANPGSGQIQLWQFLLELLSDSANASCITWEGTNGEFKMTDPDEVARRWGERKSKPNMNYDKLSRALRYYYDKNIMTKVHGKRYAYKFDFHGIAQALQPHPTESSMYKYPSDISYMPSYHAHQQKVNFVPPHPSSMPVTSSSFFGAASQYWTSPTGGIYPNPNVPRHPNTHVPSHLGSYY
UniProt Q8WXI9: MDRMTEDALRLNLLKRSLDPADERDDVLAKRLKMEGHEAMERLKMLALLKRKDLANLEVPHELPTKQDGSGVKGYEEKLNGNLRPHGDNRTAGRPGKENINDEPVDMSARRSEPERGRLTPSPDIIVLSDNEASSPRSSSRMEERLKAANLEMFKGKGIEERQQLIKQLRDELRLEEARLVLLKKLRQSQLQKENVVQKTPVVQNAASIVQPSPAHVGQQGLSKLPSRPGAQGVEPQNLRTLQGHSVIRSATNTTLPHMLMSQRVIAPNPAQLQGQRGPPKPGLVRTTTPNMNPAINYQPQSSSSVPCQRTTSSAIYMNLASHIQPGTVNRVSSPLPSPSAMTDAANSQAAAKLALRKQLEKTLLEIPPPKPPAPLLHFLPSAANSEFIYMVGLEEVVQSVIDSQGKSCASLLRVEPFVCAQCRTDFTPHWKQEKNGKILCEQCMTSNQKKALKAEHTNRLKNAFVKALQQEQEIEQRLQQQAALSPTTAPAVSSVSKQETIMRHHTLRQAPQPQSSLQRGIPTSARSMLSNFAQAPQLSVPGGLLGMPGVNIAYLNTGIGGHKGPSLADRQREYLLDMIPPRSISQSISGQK
UniProt Q9NXC2: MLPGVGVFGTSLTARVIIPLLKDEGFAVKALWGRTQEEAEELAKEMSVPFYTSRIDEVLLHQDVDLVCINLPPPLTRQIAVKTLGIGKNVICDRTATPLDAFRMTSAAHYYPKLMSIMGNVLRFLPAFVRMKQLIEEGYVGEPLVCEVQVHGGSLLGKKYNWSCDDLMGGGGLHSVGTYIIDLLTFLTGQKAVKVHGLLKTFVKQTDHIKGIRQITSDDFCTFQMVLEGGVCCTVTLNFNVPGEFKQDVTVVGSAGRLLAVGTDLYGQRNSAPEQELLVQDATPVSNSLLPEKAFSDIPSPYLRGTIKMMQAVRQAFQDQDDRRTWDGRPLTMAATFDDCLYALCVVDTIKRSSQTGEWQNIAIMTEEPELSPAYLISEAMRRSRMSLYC
UniProt P00367: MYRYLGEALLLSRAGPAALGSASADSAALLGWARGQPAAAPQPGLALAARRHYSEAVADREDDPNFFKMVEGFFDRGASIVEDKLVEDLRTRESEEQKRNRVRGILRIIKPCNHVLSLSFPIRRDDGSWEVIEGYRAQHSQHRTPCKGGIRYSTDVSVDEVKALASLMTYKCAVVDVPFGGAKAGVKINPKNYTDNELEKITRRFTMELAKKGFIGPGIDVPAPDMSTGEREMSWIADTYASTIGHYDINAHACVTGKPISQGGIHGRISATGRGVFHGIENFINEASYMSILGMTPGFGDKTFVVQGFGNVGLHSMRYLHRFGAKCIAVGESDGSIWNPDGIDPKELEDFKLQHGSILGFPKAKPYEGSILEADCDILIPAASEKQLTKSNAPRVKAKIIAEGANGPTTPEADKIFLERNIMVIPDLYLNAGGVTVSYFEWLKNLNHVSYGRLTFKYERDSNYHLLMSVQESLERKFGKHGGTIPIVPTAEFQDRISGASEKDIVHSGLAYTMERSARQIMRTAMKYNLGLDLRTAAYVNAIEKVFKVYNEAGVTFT
UniProt Q96CP2: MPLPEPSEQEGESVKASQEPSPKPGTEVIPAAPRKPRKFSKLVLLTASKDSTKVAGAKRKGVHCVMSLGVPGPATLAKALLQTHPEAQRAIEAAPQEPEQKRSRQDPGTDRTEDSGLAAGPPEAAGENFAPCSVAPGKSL
UniProt Q9H0R8, whole entry, looked up: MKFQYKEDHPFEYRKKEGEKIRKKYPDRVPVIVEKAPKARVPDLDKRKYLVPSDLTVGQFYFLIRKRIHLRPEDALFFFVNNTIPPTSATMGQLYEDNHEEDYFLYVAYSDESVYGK
UniProt Q99684: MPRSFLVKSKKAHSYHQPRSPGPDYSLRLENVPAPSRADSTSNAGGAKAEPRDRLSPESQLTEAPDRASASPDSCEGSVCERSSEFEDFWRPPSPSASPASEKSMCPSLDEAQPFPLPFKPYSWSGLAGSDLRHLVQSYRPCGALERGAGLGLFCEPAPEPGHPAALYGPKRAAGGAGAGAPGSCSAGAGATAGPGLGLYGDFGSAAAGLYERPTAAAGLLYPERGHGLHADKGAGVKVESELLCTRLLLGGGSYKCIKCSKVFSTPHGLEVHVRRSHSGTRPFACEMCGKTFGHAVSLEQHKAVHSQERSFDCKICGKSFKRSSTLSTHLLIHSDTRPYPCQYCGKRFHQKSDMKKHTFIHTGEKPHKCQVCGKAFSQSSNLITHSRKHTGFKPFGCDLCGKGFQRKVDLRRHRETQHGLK
UniProt P35637: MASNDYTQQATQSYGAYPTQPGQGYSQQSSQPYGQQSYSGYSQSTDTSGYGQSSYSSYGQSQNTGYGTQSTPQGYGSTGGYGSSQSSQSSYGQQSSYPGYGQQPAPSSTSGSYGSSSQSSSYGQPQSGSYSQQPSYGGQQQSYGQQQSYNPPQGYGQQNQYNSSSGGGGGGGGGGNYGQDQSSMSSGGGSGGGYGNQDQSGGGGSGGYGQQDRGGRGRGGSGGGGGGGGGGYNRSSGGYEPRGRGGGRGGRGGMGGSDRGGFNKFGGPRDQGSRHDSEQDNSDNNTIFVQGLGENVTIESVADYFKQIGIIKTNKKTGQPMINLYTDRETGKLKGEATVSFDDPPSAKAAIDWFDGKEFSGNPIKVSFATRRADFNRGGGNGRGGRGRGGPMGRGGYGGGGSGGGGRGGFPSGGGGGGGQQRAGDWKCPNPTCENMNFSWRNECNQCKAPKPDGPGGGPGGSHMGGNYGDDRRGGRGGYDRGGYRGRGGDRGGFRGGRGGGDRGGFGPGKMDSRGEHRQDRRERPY
UniProt O95466, whole entry: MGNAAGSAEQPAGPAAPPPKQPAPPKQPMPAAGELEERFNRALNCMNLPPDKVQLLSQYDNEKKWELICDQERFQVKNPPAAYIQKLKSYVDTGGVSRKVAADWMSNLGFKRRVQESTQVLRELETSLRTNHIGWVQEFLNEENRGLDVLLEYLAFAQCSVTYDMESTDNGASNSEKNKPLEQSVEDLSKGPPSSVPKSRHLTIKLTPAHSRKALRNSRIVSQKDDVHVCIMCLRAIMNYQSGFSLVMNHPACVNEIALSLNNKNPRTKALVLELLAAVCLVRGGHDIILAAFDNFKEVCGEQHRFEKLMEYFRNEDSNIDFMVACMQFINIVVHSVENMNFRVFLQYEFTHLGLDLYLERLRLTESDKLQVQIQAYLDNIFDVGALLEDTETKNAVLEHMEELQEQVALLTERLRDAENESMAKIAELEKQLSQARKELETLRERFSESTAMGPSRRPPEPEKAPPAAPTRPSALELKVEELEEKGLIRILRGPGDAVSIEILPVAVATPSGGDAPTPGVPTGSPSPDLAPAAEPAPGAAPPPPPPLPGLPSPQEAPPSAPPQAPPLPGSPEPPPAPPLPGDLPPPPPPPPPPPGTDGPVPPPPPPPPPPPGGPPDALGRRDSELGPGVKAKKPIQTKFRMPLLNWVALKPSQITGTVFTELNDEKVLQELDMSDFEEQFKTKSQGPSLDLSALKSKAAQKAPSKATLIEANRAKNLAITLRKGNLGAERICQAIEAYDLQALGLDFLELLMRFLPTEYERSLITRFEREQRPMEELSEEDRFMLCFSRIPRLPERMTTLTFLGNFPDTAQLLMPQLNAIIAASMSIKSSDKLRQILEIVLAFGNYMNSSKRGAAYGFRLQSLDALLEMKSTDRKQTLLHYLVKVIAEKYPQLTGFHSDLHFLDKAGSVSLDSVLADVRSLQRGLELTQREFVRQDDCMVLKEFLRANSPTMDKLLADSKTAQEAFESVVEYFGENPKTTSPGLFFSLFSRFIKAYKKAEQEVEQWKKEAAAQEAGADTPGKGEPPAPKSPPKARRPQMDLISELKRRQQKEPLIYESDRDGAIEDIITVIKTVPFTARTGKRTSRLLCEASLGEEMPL
UniProt Q9H840: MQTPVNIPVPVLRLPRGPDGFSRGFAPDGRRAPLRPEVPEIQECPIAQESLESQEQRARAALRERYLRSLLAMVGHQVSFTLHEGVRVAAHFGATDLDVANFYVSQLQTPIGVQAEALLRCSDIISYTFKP
UniProt Q9UJY5: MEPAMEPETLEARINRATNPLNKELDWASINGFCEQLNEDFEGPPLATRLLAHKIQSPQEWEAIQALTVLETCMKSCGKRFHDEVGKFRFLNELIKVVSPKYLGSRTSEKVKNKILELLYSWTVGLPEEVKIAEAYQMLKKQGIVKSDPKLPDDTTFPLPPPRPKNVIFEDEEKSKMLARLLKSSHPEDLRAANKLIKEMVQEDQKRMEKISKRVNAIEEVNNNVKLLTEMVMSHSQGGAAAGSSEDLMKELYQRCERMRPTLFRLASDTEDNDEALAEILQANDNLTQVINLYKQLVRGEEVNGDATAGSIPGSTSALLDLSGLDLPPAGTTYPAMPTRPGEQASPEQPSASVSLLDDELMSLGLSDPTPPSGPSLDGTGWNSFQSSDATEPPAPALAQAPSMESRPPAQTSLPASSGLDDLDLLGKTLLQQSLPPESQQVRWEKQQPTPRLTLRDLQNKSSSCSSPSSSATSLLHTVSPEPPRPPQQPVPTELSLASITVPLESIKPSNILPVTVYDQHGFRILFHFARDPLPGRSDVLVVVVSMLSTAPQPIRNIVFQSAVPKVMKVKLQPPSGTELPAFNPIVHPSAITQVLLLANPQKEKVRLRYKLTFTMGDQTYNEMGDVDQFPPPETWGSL
UniProt Q86YP4: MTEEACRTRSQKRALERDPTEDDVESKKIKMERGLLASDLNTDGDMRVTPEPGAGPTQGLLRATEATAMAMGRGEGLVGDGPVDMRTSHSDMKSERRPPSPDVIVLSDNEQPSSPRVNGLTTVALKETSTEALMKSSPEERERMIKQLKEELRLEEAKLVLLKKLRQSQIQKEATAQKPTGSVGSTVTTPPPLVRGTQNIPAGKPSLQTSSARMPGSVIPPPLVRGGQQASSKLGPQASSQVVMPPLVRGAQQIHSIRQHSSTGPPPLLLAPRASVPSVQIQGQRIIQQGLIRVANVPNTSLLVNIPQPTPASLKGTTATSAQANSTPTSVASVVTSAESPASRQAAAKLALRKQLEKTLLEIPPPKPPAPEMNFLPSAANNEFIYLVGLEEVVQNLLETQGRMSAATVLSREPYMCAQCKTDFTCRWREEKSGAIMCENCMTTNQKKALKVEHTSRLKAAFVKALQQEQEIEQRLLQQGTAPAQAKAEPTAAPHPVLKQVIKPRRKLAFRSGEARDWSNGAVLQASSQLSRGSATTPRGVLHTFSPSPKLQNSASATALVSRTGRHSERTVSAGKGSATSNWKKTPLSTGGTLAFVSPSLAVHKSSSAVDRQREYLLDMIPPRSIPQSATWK

Compound: COc1ccc(Cn2ccc3cc(C)c(C(=O)NO)cc32)cc1
Assay: dose-dependent thermal stabilisation call (2D-TPP, DLPTP, 10% FDR) (binary (1 = stabilised)); higher = stabilised by the compound
Conditions: system: HL-60 intact cells; concentration range 0.04-10 µM
Description: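 2D thermal proteome profiling in intact HL-60 cells treated with BRD-3811 (0, 0.04, 0.29, 2, 10 uM) for 90 min at 37 C, then heated 3 min at one of 12 temperatures (42-63.9 C). Soluble protein was quantified by TMT10 MS. The value is the DLPTP call of the paper: dose-dependent thermal stabilisation over all temperatures at 10% FDR (F-test of a dose-response against a flat model); one experiment, one call per tested protein.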

Row | Target | dose-dependent thermal stabilisation call
1 | FCHO1 (UniProt O14526) | inactive: 0
2 | GIGYF1 (UniProt O75420) | inactive: 0
3 | FLI1 (UniProt Q01543) | inactive: 0
4 | GABPB1 (UniProt Q06547) | inactive: 0
5 | FMR1 (UniProt Q06787) | inactive: 0
6 | FHOD1 (UniProt Q9Y613) | inactive: 0
7 | GATAD2B (UniProt Q8WXI9) | inactive: 0
8 | GFOD1 (UniProt Q9NXC2) | inactive: 0
9 | GLUD1 (UniProt P00367) | active: 1
10 | GM2A (UniProt P17900) | inactive: 0
11 | FEM1A (UniProt Q9BSK4) | inactive: 0
12 | GGT1 (UniProt P19440) | inactive: 0
13 | FLYWCH2 (UniProt Q96CP2) | inactive: 0
14 | GABARAPL1 (UniProt Q9H0R8) | inactive: 0
15 | GDAP1 (UniProt Q8TB36) | inactive: 0
16 | GLCCI1 (UniProt Q86VQ1) | inactive: 0
17 | GFI1 (UniProt Q99684) | inactive: 0
18 | FLJ22167 | inactive: 0
19 | GNA11 (UniProt P29992) | inactive: 0
20 | FUBP3 (UniProt Q96I24) | inactive: 0

Part of the list above, comma-delimited:
Row,Target,dose-dependent thermal stabilisation call
5,FMR1 (UniProt Q06787),inactive: 0
10,GM2A (UniProt P17900),inactive: 0

Continued.

Row | Target | dose-dependent thermal stabilisation call
21 | GDPD1 (UniProt Q8N9F7) | inactive: 0
22 | GDI1 (UniProt P31150) | inactive: 0
23 | FLNB (UniProt O75369) | inactive: 0
24 | GGA3 (UniProt Q9NZ52) | inactive: 0
25 | GA17 (UniProt Q7L2H7) | inactive: 0
26 | FDPS (UniProt P14324) | inactive: 0
27 | FUS (UniProt P35637) | inactive: 0
28 | FAM82A2 (UniProt Q96TC7) | inactive: 0
29 | FBN2 (UniProt P35556) | inactive: 0
30 | FN3KRP (UniProt Q9HA64) | inactive: 0
31 | FMNL1 (UniProt O95466) | inactive: 0
32 | FAM54A (UniProt Q6P444) | inactive: 0
33 | FAM82B (UniProt Q96DB5) | inactive: 0
34 | GEMIN7 (UniProt Q9H840) | inactive: 0
35 | GIT2 (UniProt Q14161) | inactive: 0
36 | FOSL1 (UniProt P15407) | inactive: 0
37 | GLB1 (UniProt P16278) | inactive: 0
38 | GCN1L1 (UniProt Q92616) | inactive: 0
39 | GGA1 (UniProt Q9UJY5) | inactive: 0
40 | GATAD2A (UniProt Q86YP4) | inactive: 0
